We go through four compounds from patent US20070010429A1, “Phospholipid formulations and uses thereof in lung disease detection and treatment” (The Hospital For Sick Children, priority 2005, published 2007).

The data set in a line: Content of PC species in rat BALF during development (mass spectral analysis). Particulars: for Content of PC in Fetal Rat BALF, % Total PC, Day 19: fetal day 19, N = 4 BALF samples; for Content of PC in Fetal Rat BALF, % Total PC, Day 22: fetal day 22, N = 4 BALF samples, *P ≦ 0.01; for proportion (fractional concentration) of total PC in BALF at birth: at/around birth.

In the case of `CCCCCCCC/C=C\CCCCCCCC(=O)O[C@H](COC(=O)CCCCCCCCCCCCCCC)COP(=O)([O-])OCC[N+](C)(C)C` [16.0/18:1, Palmitoyloleoyl Phosphatidylcholine], the “Content of PC in Fetal Rat BALF, % Total PC, Day 19” value (from here on “Content of PC … % Total PC, Day 19”) is 24.5 +/− 0.9 % Total PC and the “Content of PC in Fetal Rat BALF, % Total PC, Day 22” value (“Content of PC … % Total PC, Day 22” for short) is reported as 8.6 +/− 0.3* % Total PC. For the same compound, the “proportion (fractional concentration) of total PC in BALF at birth” value (shortened to “proportion (fractional concentration)”) (rat BALF) is on record as 9%.

Take `CCCCCCCCCCCCCCCC(=O)OC[C@H](COP(=O)([O-])OCC[N+](C)(C)C)OC(=O)CCCCCCCCCCCCC` [16:0/14:0, Palmitoylmyristoyl Phosphatidylcholine]: the “Content of PC … % Total PC, Day 19” value is given as 9.0 +/− 0.4 % Total PC and the “Content of PC … % Total PC, Day 22” value was 13.2 +/− 0.3* % Total PC.

Take `CCCCCCCCCCCCCCCC(=O)OC[C@H](COP(=O)([O-])OCC[N+](C)(C)C)OC(=O)CCCCCCCCCCCCCCC` [16:0/16:0, Dipalmitoyl Phosphatidylcholine, reference compound]: the “Content of PC … % Total PC, Day 19” value is given as 22.9 +/− 0.4 % Total PC and the “Content of PC … % Total PC, Day 22” value is on record as 38.8 +/− 0.5* % Total PC. The “Content of PC … % Total PC, Day 19” value (listed as 16:0/16:0PC) is listed as 23 % Total PC. Moreover, for the setting “rat BALF, after birth”, the “fractional concentration in BALF after birth” value is roughly 40%. The “proportion (fractional concentration)” value (rat BALF) is listed as 40%.

With “Palmitoylpalmitoleoyl Phosphatidylcholine [16:0/16:1]”, the “Content of PC … % Total PC, Day 19” value was 14.1 +/− 0.5 % Total PC and the “Content of PC … % Total PC, Day 22” value is recorded as 33.0 +/− 0.3* % Total PC. In addition, for the setting “rat BALF”, the “proportion (fractional concentration)” value amounted to 33%.
